Laboratory results taken from article PMC4496208.
The exact form of at least one protein or probe is not confirmed. At least one result comes from cells or an extract, where the contact may be indirect.

Protein sequences, listed by entry. Tags and fused reporters are not part of them.
UniProt P05412, whole entry: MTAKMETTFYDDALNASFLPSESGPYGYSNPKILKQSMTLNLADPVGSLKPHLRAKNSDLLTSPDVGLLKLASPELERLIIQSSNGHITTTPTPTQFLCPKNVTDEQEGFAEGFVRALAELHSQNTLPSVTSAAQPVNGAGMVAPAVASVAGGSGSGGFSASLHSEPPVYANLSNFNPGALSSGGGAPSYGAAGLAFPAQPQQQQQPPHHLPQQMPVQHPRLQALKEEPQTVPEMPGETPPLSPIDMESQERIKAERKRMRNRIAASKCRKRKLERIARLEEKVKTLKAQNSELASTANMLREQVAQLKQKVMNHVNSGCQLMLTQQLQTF
UniProt Q04206, whole entry: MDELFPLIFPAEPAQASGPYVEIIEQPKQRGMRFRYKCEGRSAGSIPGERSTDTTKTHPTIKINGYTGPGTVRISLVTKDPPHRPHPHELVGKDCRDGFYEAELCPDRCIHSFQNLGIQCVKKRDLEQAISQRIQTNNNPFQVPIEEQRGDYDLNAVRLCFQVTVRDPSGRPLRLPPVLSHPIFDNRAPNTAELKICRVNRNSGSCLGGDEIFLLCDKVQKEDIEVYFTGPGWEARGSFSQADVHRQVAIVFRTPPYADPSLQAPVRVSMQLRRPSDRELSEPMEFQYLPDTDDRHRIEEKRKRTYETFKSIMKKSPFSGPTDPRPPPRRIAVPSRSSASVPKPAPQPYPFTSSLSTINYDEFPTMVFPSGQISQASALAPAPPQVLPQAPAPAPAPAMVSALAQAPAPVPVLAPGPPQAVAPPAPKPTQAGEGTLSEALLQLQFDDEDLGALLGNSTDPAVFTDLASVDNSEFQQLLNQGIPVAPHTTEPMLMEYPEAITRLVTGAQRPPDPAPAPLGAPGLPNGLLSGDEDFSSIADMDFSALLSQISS

Tests used:
[1] = molecular target: c-Jun (Homo sapiens (SW1353 chondrosarcoma cells)) (UniProt P05412); assay: EMSA supershift; details: nuclear extract of sheared SW1353 cells, anti-c-Jun, 5 mM MgCl2, poly(dI-dC); EMSA: binding buffer with 50 ng poly(dI-dC), 2.5% glycerol, 0.05% NP-40, 5 mM MgCl2, 0.25 mg BSA, 20 fmol probe, 1-2 ug nuclear extract, 30 min on ice; protein in an extract; label: 5'-biotin
[2] = molecular target: p65 (NF-kB) (Homo sapiens (SW1353 chondrosarcoma cells)) (UniProt Q04206); assay: EMSA supershift; details: nuclear extract of sheared SW1353 cells, anti-p65, 5 mM MgCl2, poly(dI-dC); EMSA: binding buffer with 50 ng poly(dI-dC), 2.5% glycerol, 0.05% NP-40, 5 mM MgCl2, 0.25 mg BSA, 20 fmol probe, 1-2 ug nuclear extract, 30 min on ice; protein in an extract; label: 5'-biotin

Sequence	binding result [1]	binding result [2]
ATGAGTCACCT (double strand) [c-Jun (AP-1) probe, MMP-7 promoter (-68/-58)]	binds	
GGAAATGCCTT (double strand) [NF-kB probe, MMP-7 promoter (-1507/-1498)]		binds
